From ChEMBL document CHEMBL3988442, “University of Dundee, Small-Polar-MMV Screening Library” (2021).

The chains behind the UniProt entries cited, without tags or fusion partners.
UniProt E9BF75, entry or part of it: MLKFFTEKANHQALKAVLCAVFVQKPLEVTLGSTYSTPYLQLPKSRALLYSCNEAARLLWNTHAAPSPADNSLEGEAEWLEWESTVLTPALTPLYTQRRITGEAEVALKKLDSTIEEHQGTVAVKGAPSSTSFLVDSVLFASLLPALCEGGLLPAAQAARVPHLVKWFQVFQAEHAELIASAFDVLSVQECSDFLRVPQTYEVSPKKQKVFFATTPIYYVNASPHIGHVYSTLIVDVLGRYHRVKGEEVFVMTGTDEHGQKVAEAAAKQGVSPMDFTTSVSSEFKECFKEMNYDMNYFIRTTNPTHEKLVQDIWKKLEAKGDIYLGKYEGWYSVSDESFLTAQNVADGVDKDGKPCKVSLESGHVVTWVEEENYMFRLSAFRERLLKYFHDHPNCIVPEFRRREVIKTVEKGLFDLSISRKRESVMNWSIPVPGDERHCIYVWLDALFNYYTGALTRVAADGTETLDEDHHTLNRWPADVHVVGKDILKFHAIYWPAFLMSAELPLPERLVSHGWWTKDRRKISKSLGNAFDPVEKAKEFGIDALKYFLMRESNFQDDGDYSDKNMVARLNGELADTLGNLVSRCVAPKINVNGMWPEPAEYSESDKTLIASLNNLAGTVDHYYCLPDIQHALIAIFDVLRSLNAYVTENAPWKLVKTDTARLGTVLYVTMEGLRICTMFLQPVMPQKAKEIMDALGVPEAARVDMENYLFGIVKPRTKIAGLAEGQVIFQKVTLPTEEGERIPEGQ

Results are percentages, as filed.
The controls that fix the scale are not given in the record; negative values are as filed.
This is an unselected part of the compounds tested.

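Primary screen of methionyl-tRNA synthetase; the read-out is not stated. Target: Methionyl-tRNA synthetase (putative), Leishmania donovani (UniProt E9BF75). The test concentration is not given. Values are per cent inhibition. Of about 68,000 compounds tested this way, about 24 (0.035%) reached 50% or more in at least one test.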

compound,inhibition
CCN1CCN(C(=O)COCc2nc(-c3ccncc3)no2)CC1,-2.233%
COCC(=O)N1Cc2ccnn2CC(COCCN(C)C)C1 (stereo not given),11.85%
CN(C)CCN1CC(C(=O)NCc2cn3cccnc3n2)CC1=O (stereo not given),12.06%
Oc1c(F)cc(CNc2cccc(-c3nnc[nH]3)c2)cc1F,14.63%
Nc1cc(CC2COc3ccccc3C2)ccn1 (stereo not given),3.352%
Cc1cnn(CC2CCCN2Cc2cc(C)no2)c1 (stereo not given),8.421%
CCS(=O)(=O)c1ccc2oc([C@H]3CCN(Cc4cccnc4)C3)nc2c1,3.759%
N#Cc1ccc(C(=O)N2CCC(c3ncc[nH]3)CC2)cn1,3.394%
Cc1nc(-c2cn(CCN)nn2)n(-c2ccc(C(F)(F)F)cc2)n1,8.934%
COc1ccccc1CN(Cc1cccnc1)Cc1nccs1,-3.2%
O=C(N[C@@H]1CCN(c2nccc3ccccc23)C[C@H]1O)c1cnccn1,12.09%
Cc1ccn(-c2ccccc2NCc2cccnc2)n1,3.804%
Cc1ccc(CN2C[C@H]3C[C@H](C(=O)NCC4CC4)N(C)[C@H]3C2)o1,18.27%
N#Cc1nccnc1N1CCN(CCOCc2ccccc2)CC1,11.39%
COCc1cccc(CNCc2c(C)nn(C)c2N2CCOCC2)c1,19.34%
CC(C)[C@@H](C)NC(=O)N1CCn2nc(C(=O)NCCN(C)C)cc2C1,4.965%
CCCN(CCO)C(=O)C1CCC(=O)N(Cc2ccc(Cl)cc2)C1 (stereo not given),11.5%
CN1CCN(c2ccc(NS(=O)(=O)c3ccc(Br)s3)cc2C(=O)O)CC1,6.843%
CC(C)c1noc(CCC(=O)NCC2CCC(C(N)=O)CC2)n1 (stereo not given),15.06%
CN(CCc1ccccn1)C(=O)c1ccccc1F,3.922%
Cc1ncc(S(C)(=O)=O)c(N2CCCN(Cc3ccccn3)CC2)n1,2.439%
CC(C)(C)C(=O)CN1Cc2ccccc2NCCC1=O,4.595%
O=C(NC1CCc2ccccc2C1)C1CCN(Cc2ccco2)CC1 (stereo not given),19.38%
Cc1ccc(C2CSCCN2C(=O)c2ccncc2)cc1 (stereo not given),8.625%
CCn1cc(S(=O)(=O)NC2CCCN(CC3CCCCC3)C2)cn1 (stereo not given),3.833%
OCCNC1CSCCc2ccccc21 (stereo not given),13.94%
CS(=O)(=O)N1CCCCC12CCN(c1nncs1)CC2,16.06%
COCCN(C/C=C/c1ccccc1)Cc1[nH]cnc1C,14.69%
Cc1nnc2ccc(C(=O)N3CCSC(C)(C)C3)cn12,9.774%
CC(C)c1ccc(CCC(=O)N(C)C2CCN(C)C2=O)cc1 (stereo not given),2.957%
CN(Cc1cnn(-c2ccccc2)n1)CC1CCCN1c1cccnn1 (stereo not given),14.96%
CCc1nc(N2CCC3(CCC(=O)N(Cc4ccncc4)C3)CC2)no1,-9.832%
c1cnc(N2CCc3onc(CN4CCCC4)c3C2)cn1,2.186%
CC(C)N(C)S(=O)(=O)N(C)Cc1cnn(C)c1,8.242%
C[C@H](c1ccc(Cl)cc1)n1c(C2CC2)n[nH]c1=O,9.384%
Cc1ccc(C)n1-c1ccsc1C(=O)NCC(=O)N1CCCC1,13.28%
CN(C)CCN1CCN(CC2CC2)c2ncccc2C1,9.137%
O=C(Cn1ccnc1)N1CCC(n2cc(-c3cccc(Cl)c3)nn2)CC1,14.58%
O=c1c(CN2CCCCCC2)coc(O)c1CN1CCCCCC1,23.82%
O=C(CN1CCC(Nc2ncccn2)CC1)Nc1ccccc1,17.91%
CN(C)C(=O)N1CCC2(C1)CN(c1cccnc1)C(=O)CN2C (stereo not given),13.97%
CCc1nc(C2CCCN2CCCc2nc3ccccc3o2)no1 (stereo not given),10.74%
CN(C(=O)Cc1ccccc1F)C1CCN(c2ccccn2)CC1,21.1%
CCNc1ncc2c(n1)CN(c1ccc(CC)cc1)C2=O,27.89%
COc1ccc(CN2CCN(C3CCc4ccccc4C3)CC2)cc1O (stereo not given),8.094%
CNC(=O)CN1CC[C@H]2CN(C(=O)c3cc[nH]n3)C[C@H]2C1,10.66%
CC1(C)CNC(=O)c2nc(CCCN3CCCC3)[nH]c2C1,12.97%
Cn1cc(C(=O)NC[C@@H]2OC[C@H]3CN(Cc4ccco4)CC[C@H]32)cn1,14.5%
CN(CCc1ccccn1)c1cc(N2CCCCC2)ncn1,8.934%

The last 4 entries again:

With CNC(=O)CN1CC[C@H]2CN(C(=O)c3cc[nH]n3)C[C@H]2C1 the screen gave 10.66%.
With CC1(C)CNC(=O)c2nc(CCCN3CCCC3)[nH]c2C1 the screen gave 12.97%.
With Cn1cc(C(=O)NC[C@@H]2OC[C@H]3CN(Cc4ccco4)CC[C@H]32)cn1 the screen gave 14.5%.
With CN(CCc1ccccn1)c1cc(N2CCCCC2)ncn1 the screen gave 8.934%.